# Assay results as given in the supplement of paper PMC11006884.
# Amino acid sequences for entries named in this document (tags omitted). A change or cut given only in a name is not applied to a line headed by its entry.
# UniProt P54886: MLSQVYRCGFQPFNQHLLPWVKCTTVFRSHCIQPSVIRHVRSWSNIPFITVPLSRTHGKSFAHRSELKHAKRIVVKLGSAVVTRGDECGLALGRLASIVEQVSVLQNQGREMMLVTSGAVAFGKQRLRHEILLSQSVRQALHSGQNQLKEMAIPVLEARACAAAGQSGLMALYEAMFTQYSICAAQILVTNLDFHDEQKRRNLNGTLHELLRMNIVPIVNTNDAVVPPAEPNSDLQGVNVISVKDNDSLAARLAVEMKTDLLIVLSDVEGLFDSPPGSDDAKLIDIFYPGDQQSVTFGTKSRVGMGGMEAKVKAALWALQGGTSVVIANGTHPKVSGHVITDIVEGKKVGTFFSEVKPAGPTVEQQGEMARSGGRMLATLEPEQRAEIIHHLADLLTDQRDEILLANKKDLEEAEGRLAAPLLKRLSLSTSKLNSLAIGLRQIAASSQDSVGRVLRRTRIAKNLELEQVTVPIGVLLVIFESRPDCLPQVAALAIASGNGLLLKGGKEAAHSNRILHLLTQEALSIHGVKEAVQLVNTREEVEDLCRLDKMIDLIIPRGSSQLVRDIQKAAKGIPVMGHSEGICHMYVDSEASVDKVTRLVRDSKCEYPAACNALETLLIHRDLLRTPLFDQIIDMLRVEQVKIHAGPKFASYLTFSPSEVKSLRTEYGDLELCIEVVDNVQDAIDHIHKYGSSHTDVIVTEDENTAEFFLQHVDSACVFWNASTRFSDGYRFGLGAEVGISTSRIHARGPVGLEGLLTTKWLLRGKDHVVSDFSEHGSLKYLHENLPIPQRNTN
# UniProt P60891: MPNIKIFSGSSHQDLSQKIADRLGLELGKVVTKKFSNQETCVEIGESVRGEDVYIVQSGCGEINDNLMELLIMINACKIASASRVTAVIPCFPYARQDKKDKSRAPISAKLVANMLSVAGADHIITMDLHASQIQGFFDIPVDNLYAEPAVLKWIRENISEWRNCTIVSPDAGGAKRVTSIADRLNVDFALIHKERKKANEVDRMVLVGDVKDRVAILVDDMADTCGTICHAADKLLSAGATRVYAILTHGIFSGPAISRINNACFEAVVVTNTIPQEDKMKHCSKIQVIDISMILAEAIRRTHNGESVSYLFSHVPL
# UniProt P60174, whole entry, looked up: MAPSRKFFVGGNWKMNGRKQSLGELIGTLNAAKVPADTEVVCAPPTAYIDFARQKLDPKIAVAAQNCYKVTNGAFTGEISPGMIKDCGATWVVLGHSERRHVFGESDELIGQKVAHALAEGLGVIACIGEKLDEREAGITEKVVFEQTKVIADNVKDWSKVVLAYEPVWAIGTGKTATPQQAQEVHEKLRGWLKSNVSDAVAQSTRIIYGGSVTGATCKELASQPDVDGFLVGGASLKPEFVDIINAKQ
# UniProt P55196: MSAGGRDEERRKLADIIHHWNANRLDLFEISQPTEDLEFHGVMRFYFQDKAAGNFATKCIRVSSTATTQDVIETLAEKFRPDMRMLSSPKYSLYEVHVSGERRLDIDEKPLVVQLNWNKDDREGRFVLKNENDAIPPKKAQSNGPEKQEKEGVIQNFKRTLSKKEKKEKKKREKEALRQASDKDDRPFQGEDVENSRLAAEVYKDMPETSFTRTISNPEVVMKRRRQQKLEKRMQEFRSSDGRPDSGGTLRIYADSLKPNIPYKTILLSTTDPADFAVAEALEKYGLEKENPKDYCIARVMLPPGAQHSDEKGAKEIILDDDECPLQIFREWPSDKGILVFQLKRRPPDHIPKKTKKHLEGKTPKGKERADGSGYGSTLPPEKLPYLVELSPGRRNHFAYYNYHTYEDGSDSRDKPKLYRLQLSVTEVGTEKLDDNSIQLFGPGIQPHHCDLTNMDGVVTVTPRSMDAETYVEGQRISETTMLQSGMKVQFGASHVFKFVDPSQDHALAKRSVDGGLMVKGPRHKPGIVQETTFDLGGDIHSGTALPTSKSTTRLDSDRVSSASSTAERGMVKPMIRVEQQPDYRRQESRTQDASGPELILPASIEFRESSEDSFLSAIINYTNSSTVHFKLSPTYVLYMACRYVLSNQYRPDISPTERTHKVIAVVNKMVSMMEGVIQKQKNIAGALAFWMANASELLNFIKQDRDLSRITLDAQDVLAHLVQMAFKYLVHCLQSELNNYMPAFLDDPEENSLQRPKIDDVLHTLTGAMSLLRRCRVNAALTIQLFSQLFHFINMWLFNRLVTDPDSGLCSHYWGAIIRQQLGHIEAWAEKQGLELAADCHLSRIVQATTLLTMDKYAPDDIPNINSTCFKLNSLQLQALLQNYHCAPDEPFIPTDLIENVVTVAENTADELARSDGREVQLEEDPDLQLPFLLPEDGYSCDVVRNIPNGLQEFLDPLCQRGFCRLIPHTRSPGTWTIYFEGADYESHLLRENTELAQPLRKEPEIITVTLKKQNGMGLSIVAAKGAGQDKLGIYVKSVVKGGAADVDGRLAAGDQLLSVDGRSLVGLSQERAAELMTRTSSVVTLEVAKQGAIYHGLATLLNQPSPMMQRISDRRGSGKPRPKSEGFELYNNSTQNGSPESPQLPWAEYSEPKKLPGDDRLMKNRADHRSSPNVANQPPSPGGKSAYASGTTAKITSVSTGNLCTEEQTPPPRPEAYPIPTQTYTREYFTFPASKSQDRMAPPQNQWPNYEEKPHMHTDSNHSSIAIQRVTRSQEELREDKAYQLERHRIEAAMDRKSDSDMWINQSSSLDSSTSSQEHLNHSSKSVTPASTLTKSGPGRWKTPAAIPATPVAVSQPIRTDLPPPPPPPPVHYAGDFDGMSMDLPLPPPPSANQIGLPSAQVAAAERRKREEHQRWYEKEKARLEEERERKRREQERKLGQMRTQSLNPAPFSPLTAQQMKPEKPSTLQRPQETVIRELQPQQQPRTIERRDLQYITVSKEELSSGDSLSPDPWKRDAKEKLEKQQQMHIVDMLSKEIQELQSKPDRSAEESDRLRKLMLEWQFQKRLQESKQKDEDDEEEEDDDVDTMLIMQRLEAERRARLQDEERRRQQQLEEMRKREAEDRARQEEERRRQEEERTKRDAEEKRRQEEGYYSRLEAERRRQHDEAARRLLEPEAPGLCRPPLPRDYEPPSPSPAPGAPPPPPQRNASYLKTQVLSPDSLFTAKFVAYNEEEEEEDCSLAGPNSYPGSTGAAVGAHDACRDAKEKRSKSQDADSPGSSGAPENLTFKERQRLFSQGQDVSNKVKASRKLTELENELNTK
# UniProt P61088: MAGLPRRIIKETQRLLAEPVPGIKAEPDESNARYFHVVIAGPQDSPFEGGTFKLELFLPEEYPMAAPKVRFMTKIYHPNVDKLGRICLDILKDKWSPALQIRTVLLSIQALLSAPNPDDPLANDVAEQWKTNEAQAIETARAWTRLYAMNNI
# UniProt P60228, whole entry, looked up: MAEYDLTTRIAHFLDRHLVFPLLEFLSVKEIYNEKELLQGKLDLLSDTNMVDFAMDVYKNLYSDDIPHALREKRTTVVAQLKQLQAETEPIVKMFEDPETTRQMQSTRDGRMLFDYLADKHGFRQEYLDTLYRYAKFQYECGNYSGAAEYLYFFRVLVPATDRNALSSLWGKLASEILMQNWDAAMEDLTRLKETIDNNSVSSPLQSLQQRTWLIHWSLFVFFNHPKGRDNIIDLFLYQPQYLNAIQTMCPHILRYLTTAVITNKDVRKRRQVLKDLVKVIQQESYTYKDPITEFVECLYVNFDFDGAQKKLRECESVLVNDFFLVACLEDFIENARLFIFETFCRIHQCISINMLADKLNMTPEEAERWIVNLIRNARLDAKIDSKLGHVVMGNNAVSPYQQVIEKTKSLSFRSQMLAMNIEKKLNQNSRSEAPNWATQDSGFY
# UniProt P61081: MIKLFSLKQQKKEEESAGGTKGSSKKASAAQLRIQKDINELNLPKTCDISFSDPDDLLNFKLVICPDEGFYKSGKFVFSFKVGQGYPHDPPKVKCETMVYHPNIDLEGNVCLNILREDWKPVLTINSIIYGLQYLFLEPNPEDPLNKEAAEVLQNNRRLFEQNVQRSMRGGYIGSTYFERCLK
# UniProt P56134: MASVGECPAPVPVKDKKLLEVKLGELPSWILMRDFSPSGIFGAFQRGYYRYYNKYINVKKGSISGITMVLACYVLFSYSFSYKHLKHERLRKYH
# UniProt P51659: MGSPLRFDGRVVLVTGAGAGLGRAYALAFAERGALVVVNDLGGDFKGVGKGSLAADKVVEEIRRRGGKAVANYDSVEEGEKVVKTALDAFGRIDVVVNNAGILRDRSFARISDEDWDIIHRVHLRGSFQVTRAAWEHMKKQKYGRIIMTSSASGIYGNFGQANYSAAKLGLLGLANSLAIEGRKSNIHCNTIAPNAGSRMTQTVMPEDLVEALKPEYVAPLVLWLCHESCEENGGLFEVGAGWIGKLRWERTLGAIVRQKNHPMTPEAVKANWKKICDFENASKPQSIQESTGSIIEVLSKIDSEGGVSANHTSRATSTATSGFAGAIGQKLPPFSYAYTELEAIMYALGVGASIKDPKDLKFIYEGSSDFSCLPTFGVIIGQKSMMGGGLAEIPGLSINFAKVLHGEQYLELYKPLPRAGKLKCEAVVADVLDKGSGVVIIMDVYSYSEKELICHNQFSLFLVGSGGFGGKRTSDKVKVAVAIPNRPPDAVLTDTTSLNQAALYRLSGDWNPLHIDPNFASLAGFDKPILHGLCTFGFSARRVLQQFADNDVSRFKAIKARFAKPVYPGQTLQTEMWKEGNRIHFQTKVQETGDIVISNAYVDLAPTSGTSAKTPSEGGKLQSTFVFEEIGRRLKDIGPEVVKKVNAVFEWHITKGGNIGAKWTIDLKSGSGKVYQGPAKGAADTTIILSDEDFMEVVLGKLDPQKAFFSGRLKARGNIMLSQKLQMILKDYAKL
# UniProt P55265: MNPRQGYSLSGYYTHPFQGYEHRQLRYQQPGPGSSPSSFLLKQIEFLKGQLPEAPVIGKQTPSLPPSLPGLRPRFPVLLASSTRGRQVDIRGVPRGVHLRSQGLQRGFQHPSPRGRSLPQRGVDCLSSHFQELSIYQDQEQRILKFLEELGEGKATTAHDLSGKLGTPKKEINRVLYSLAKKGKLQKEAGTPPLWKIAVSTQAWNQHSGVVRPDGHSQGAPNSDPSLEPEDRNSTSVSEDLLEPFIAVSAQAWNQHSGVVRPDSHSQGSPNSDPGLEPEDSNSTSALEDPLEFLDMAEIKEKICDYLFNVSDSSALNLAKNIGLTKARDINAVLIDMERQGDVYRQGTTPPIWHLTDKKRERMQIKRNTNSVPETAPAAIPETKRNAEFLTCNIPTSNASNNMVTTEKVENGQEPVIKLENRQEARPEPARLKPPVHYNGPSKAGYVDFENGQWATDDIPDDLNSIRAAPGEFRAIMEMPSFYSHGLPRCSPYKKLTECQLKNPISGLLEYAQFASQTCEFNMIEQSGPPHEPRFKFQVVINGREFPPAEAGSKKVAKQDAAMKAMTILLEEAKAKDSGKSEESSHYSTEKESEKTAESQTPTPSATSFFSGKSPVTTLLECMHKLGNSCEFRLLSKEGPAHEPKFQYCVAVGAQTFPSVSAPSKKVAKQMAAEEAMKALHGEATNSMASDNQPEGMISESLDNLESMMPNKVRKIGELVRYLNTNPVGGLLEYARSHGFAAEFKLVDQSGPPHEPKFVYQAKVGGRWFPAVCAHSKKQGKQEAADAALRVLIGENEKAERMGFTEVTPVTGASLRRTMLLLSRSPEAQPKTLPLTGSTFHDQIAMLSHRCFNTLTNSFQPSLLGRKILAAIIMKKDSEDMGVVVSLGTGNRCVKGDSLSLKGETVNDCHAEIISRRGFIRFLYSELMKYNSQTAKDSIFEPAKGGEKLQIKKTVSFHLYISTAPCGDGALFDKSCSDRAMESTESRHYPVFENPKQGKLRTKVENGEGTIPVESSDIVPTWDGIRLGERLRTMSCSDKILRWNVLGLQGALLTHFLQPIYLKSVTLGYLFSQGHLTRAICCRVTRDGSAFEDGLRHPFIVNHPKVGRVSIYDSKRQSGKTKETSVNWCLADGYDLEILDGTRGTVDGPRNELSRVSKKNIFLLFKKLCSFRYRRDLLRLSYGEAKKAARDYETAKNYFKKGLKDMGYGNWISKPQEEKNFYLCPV
# UniProt P52429: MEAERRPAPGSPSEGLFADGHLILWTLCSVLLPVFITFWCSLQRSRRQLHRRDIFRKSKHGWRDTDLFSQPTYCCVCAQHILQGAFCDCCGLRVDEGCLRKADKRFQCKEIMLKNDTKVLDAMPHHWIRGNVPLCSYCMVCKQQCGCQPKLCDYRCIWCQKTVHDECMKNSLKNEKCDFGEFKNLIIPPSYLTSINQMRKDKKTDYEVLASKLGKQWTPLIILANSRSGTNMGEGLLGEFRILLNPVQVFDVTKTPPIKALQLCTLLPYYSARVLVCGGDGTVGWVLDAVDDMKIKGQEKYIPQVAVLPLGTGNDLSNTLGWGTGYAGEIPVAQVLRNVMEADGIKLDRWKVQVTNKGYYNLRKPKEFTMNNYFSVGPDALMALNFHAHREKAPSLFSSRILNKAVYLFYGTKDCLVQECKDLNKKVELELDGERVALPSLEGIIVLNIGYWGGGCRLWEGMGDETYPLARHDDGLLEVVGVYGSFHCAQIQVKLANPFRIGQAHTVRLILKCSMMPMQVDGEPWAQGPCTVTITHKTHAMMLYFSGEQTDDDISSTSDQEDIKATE
# The list shows a part of the results, in another mix than the full data.
# Compound: COC(=O)C#Cc1ccccc1 [methyl 3-phenylpropiolate]
# Assay: log2 ratio of iodoacetamide-alkyne labeling of the cysteine site, DMSO over compound (competition); higher = stronger covalent engagement of the cysteine by the compound, active = 1 or more
# Conditions: 500 µM; treatment time 1 h; system: HEK293T cell lysate
# In short: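 HEK293T lysate (2 mg/mL) was incubated with electrophile (500 µM) or vehicle for 1 h at ambient temperature and then with iodoacetamide alkyne for 1 h. Labelled proteins were clicked to sCIP-TMT reagents, pooled, digested, enriched on streptavidin and measured by Orbitrap Eclipse LC-MS/MS with FAIMS, with FragPipe quantification. The per-cysteine log2 competition ratio is mean control-channel reporter intensity over mean compound-channel reporter intensity. Across three replicates with duplicate channels, cysteines quantified in only one replicate were excluded.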
row,Target,log2 ratio of iodoacetamide-alkyne labeling
1,NDUFA8 C110 (UniProt P51970),active: 1.12
2,ALDH18A1 C546 (UniProt P54886),inactive: 0.0415
3,RAP1GDS1 C144 (UniProt P52306),inactive: 0.0633
4,UniProt P61978_C145,inactive: 0.0391
5,UniProt P60891_C91,inactive: -0.381
6,UniProt P62241_C182,inactive: 0.549
7,UniProt P59998_C21,inactive: 0.337
8,NPEPPS C887 (UniProt P55786),inactive: 0.408
9,TPI1 C164 (UniProt P60174),inactive: -0.0538
10,HNRNPA3 C64 (UniProt P51991),inactive: 0.03
11,UniProt P60660_C32,inactive: 0.0279
12,UniProt P55196_C960,inactive: 0.273
13,UniProt P55072_C209,inactive: 0.132
14,UniProt P61160_C221,inactive: 0.528
15,UniProt P60891_C265,inactive: 0.0133
16,NAP1L1 C258 (UniProt P55209),inactive: 0.126
17,UniProt P61077_C111,inactive: 0.106
18,DRG2 C223 (UniProt P55039),inactive: 0.133
19,UniProt P61088_C87,inactive: 0.15

# Two neighbouring entries from above, for reference:
row,Target,log2 ratio of iodoacetamide-alkyne labeling
9,TPI1 C164 (UniProt P60174),inactive: -0.0538
10,HNRNPA3 C64 (UniProt P51991),inactive: 0.03

# Following part

row,Target,log2 ratio of iodoacetamide-alkyne labeling
1,UniProt P62244_C72,inactive: 0.177
2,UniProt P55196_C1742,inactive: 0.821
3,UniProt P60228_C250,inactive: 0.778
4,AGFG1 C89 (UniProt P52594),inactive: 0.163
5,UniProt P61081_C47,inactive: 0.248
6,UniProt P56134_C7,inactive: 0.00348
7,UniProt P60891_C165,inactive: -0.19
8,UniProt P62195_C209,inactive: -0.131
9,RARS C115 (UniProt P54136),inactive: -0.0624
10,UniProt P55196_C324,inactive: 0.605
11,HSD17B4 C535 (UniProt P51659),inactive: -0.0514
12,CASP7 C7 (UniProt P55210),inactive: 0.0191
13,HSD17B4 C277 (UniProt P51659),inactive: 0.0673
14,ADAR C649 (UniProt P55265),inactive: 0.375
15,DGKE C264 (UniProt P52429),inactive: 0.223
16,CLCN3 C733 (UniProt P51790),inactive: -0.0337
17,SUCLG1 C172 (UniProt P53597),active: 1.72
18,USP14 C415 (UniProt P54578),inactive: -0.369
